Record: PubChem BioAssay AID1224830 (NIAID, 2016)
Here is an unselected part of about 18,000 reagents tested. About 2,900 of all reagents (16%) count as active. 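Calls are made per well; low scores hint the gene aids the LPS response, high scores that it dampens it.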 Unmarked entries are inactive. Repeated entries: four replicate wells of each siRNA pool.

- Assay: 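Host factors that control LPS-induced TNF expression in human macrophages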 (primary screen)
- Cell system: human THP-1 monocytic leukaemia cells, TNF dual-luciferase reporter clone, PMA-differentiated to macrophage-like cells
- Knock-down reagent: siRNA pool against human genes, 50 nM
- Time to read-out: LPS for 4 h, given about 3 days after siRNA transfection
- Conditions: bacterial LPS (TLR4 ligand), 10 ng/ml
- Read-out: 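Ratio of firefly to renilla light, scaled to the plate median and expressed as a robust z-score per replicate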
- Reading the numbers: TNF reporter robust z-score: higher = stronger TNF reporter response to LPS
- Call rule: 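Each well counts as active if its z-score is over 2.8 or under -1.5; controls are left without a call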

no.	Target gene	TNF reporter robust z-score
1	CES3 (GeneID 23491)	0.03
2	CES3 (GeneID 23491)	-0.51
3	CES3 (GeneID 23491)	0.15
4	CES3 (GeneID 23491)	0.24
5	SLC3A2 (GeneID 6520)	-1.33
6	SLC3A2 (GeneID 6520)	-1.22
7	SLC3A2 (GeneID 6520)	-0.74
8	SLC3A2 (GeneID 6520)	-0.54
9	PBRM1 (GeneID 55193)	0.22
10	PBRM1 (GeneID 55193)	-0.47
11	PBRM1 (GeneID 55193)	-0.25
12	PBRM1 (GeneID 55193)	0.21
13	UQCR11 (GeneID 10975)	0.26
14	UQCR11 (GeneID 10975)	-0.15
15	UQCR11 (GeneID 10975)	0.66
16	UQCR11 (GeneID 10975)	0.7
17	HRH1 (GeneID 3269)	0.25
18	HRH1 (GeneID 3269)	1.25
19	HRH1 (GeneID 3269)	1.48
20	HRH1 (GeneID 3269)	0.96
21	GTF2H2 (GeneID 2966)	-0.04
22	GTF2H2 (GeneID 2966)	0.52
23	GTF2H2 (GeneID 2966)	0.53
24	GTF2H2 (GeneID 2966)	0.43
25	FDFT1 (GeneID 2222)	0.4
26	FDFT1 (GeneID 2222)	-0.47
27	FDFT1 (GeneID 2222)	-1.33
28	FDFT1 (GeneID 2222)	-0.32

Targets above whose target name starts with C or c:
Target gene	TNF reporter robust z-score
CES3 (GeneID 23491)	0.03
CES3 (GeneID 23491)	-0.51
CES3 (GeneID 23491)	0.15
CES3 (GeneID 23491)	0.24

Next entries:
no.	Target gene	TNF reporter robust z-score
29	TAP2 (GeneID 6891)	0.77
30	TAP2 (GeneID 6891)	-0.15
31	TAP2 (GeneID 6891)	0.16
32	TAP2 (GeneID 6891)	1.25
33	FOXJ3 (GeneID 22887)	-0.58
34	FOXJ3 (GeneID 22887)	-1.48
35	FOXJ3 (GeneID 22887)	-0.21
36	FOXJ3 (GeneID 22887)	0.5
37	RNF212 (GeneID 285498)	0.29
38	RNF212 (GeneID 285498)	0.62
39	RNF212 (GeneID 285498)	1.67
40	RNF212 (GeneID 285498)	0.09
41	ST7 (GeneID 7982)	-0.27
42	ST7 (GeneID 7982)	-1.46
43	ST7 (GeneID 7982)	-0.87
44	ST7 (GeneID 7982)	-0.49
45	H2AC12 (GeneID 85235)	0.45
46	H2AC12 (GeneID 85235)	0.66
47	H2AC12 (GeneID 85235)	-0.41
48	H2AC12 (GeneID 85235)	0.39
49	MTERF2 (GeneID 80298)	-0.9
50	MTERF2 (GeneID 80298)	-1
51	MTERF2 (GeneID 80298)	-0.37
52	MTERF2 (GeneID 80298)	-0.47
53	TMPRSS11A (GeneID 339967)	-0.32
54	TMPRSS11A (GeneID 339967)	-0.64
55	TMPRSS11A (GeneID 339967)	-0.47
56	TMPRSS11A (GeneID 339967)	2.08
57	SCCPDH (GeneID 51097)	0.56
58	SCCPDH (GeneID 51097)	4.28 (active)
59	SCCPDH (GeneID 51097)	2
60	SCCPDH (GeneID 51097)	2.89 (active)
61	ILF2 (GeneID 3608)	1.48
62	ILF2 (GeneID 3608)	2.13
63	ILF2 (GeneID 3608)	1.83
64	ILF2 (GeneID 3608)	1.65
65	EPB41L2 (GeneID 2037)	-0.87
66	EPB41L2 (GeneID 2037)	-0.51
67	EPB41L2 (GeneID 2037)	-0.81
68	EPB41L2 (GeneID 2037)	-0.79
69	NOTUM (GeneID 147111)	-0.74
70	NOTUM (GeneID 147111)	0.07
71	NOTUM (GeneID 147111)	0.71
72	NOTUM (GeneID 147111)	-0.13
73	GLRX2 (GeneID 51022)	-0.28
74	GLRX2 (GeneID 51022)	0.55
75	GLRX2 (GeneID 51022)	-0.22
76	GLRX2 (GeneID 51022)	0.29
